Data as given in PubChem BioAssay AID686938 (Drosophila RNAi Screening Center, 2013).
In all, the deposit lists about 23,000 reagents; shown is an unselected part of those that have a named target and a result. Over the whole deposit, 75 (0.33%) were called active. 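Raw plate signals without normalisation; calls rest on plate z-scores that were not deposited; ratio present for only 364 wells.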 Unmarked entries are inactive. Not given: the dose of the treatment.

Assay: 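Looking for CRAC channel components and the factors controlling them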 (primary screen)
Cell system: Drosophila S2R+ cells
Reagents: long dsRNA against Drosophila genes, about 0.25 µg dsRNA per well, roughly 10,000 cells
Time to read-out: 5 days of knock-down before the calcium assay
Challenge: thapsigargin (SERCA pump blocker) to empty calcium stores; entry signal taken 4 min after adding it
Detection: 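Per-well fluo-4 fluorescence in two replicates, unnormalised, measured in resting cells and 4 min after store depletion by the SERCA blocker thapsigargin; ratio of the two present in few wells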
Scale: calcium entry signal: higher = stronger calcium signal after store depletion; entry to resting ratio: higher = more calcium entry relative to resting level; resting calcium signal: higher = higher resting calcium signal
Units: calcium entry signal in fluorescence units; resting calcium signal in fluorescence units
Rule for the call: 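Called when the plate z-score of the entry-to-rest ratio, mean of duplicates, falls below −3; wells with low overall dye signal (Fmax z below −2) or more than five off-targets excluded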
Calls: active = strongly reduced calcium entry; inactive = no strong reduction

After knock-down of Aos1 (Activator of SUMO 1) [DRSC14113], the record shows calcium entry signal, replicate 1 = 3.79e7; calcium entry signal, replicate 2 = 3.26e7; resting calcium signal, replicate 1 = 2.02e7; resting calcium signal, replicate 2 = 1.73e7.
For CG43181 [DRSC17559], the values are calcium entry signal, replicate 1 = 4.48e7; calcium entry signal, replicate 2 = 4.63e7; resting calcium signal, replicate 1 = 2.49e7; resting calcium signal, replicate 2 = 1.99e7.
Silencing of RpL26 (Ribosomal protein L26) [DRSC10726] gave: calcium entry signal, replicate 1 = 9.66e6; calcium entry signal, replicate 2 = 9.85e6; resting calcium signal, replicate 1 = 6.68e6; resting calcium signal, replicate 2 = 7.40e6.
ana (anachronism) [DRSC07579] scored calcium entry signal, replicate 1 = 5.86e7; calcium entry signal, replicate 2 = 4.51e7; resting calcium signal, replicate 1 = 2.53e7; resting calcium signal, replicate 2 = 2.06e7.
Knock-down of CR18275 (pseudo) [DRSC18151] gave: calcium entry signal, replicate 1 = 2.23e7; calcium entry signal, replicate 2 = 2.43e7; entry to resting ratio 1.8; resting calcium signal, replicate 1 = 1.23e7; resting calcium signal, replicate 2 = 1.16e7.
Depletion of CG12069 [DRSC14470] resulted in: calcium entry signal, replicate 1 = 4.12e7; calcium entry signal, replicate 2 = 4.55e7; resting calcium signal, replicate 1 = 2.04e7; resting calcium signal, replicate 2 = 2.02e7.
Against CG8852 [DRSC00719], the values are calcium entry signal, replicate 1 = 3.44e7; calcium entry signal, replicate 2 = 4.09e7; resting calcium signal, replicate 1 = 1.71e7; resting calcium signal, replicate 2 = 1.95e7.
CG7110 [DRSC03011] gave calcium entry signal, replicate 1 = 3.82e7; resting calcium signal, replicate 1 = 1.78e7.
For CG7110 [DRSC03012], the values are calcium entry signal, replicate 1 = 3.51e7; calcium entry signal, replicate 2 = 2.26e7; resting calcium signal, replicate 1 = 1.64e7; resting calcium signal, replicate 2 = 1.04e7.
Against Pi4KIIalpha (Phosphatidylinositol 4-kinase II alpha) [DRSC12322] the deposit lists calcium entry signal, replicate 1 = 2.78e7; calcium entry signal, replicate 2 = 3.12e7; resting calcium signal, replicate 1 = 1.28e7; resting calcium signal, replicate 2 = 1.48e7.
With knock-down of Pi4KIIalpha (Phosphatidylinositol 4-kinase II alpha) [DRSC12323] the results were calcium entry signal, replicate 1 = 5.53e7; calcium entry signal, replicate 2 = 5.06e7; resting calcium signal, replicate 1 = 2.30e7; resting calcium signal, replicate 2 = 2.21e7.
Knock-down of CCT2 (Chaperonin containing TCP1 subunit 2) [DRSC18415] resulted in: calcium entry signal, replicate 1 = 2.23e7; calcium entry signal, replicate 2 = 2.16e7; resting calcium signal, replicate 1 = 1.20e7; resting calcium signal, replicate 2 = 1.24e7.

As entered above:
Value for CG7110 [DRSC03012] under “calcium entry signal, replicate 1”: 3.51e7
CG7110 [DRSC03011], resting calcium signal, replicate 1: 1.78e7
